{"source": "PubChem BioAssay AID1508600", "about": "(Functional Genomics Laboratory (NCATS/FGL), 2020)", "note": "The campaign covered roughly 53,000 sequences. About 3,700 (7%) were called active.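 The calls were made as follows: active = gene knockdowns whose robust z-score for IL-1 alpha signal is at least 2 or at most -2, so actives lie on both sides; inactive = the rest.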 The list shows a part of the results."}
{"assay": "Components of the Cytosolic LPS Sensing Pathway: Gene Identification via Genome-wide siRNA Screen;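 also: robust z of the log signal after scaling to non-targeting control siRNA wells of the plate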", "settings": "RAW264.7 macrophages, IL-1a HTRF, actives lie on both sides, screened at 100 nM (by protocol), cells primed 5 h with Pam3CSK4 first", "procedure,_shortened": "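Knockdown: 100 nM siRNA, 48h, RAW264.7. Stimulation: Pam3CSK4 5 h, then LipidA via TransIT-TKO 24 h. Output: supernatant IL-1a HTRF, negative-control-normalized, log robust z-score; viability by CellTiter-Glo.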"}
{"sequence": "GCCAACCAUUAAGCUACUATT against Gyg", "z-score": "inactive: -0.535"}
{"sequence": "CGCUGAAAUAAAGACCAGATT against Lmf1", "z-score": "inactive: 0.696"}
{"sequence": "GGUACUAGAUGACAAAAACTT against Cfap20", "z-score": "inactive: 0.436"}
{"sequence": "GGAGGAUGAGAUGAUGCCATT against Sez6l2", "z-score": "active: -2.19"}
{"sequence": "GGAAACAACAGAAUAAAGCTT against Chrm1", "z-score": "inactive: 0.369"}
{"sequence": "CGUGGAAUCCAGACACUUGTT against Gsdma2", "z-score": "inactive: 1.65"}
{"sequence": "GCCAUCUGUAGUGACCAGATT against Notch2", "z-score": "inactive: -0.493"}
{"sequence": "GCAGCGUACAAAUCCUUCUTT against Numb", "z-score": "inactive: -0.201"}
{"sequence": "GCAGUGACGACCAAAAAUCTT against Ttc12", "z-score": "inactive: -0.736"}
{"sequence": "GGUCUUCUCCGAGUACUUUTT against Ap1m1", "z-score": "active: 4.38"}
{"sequence": "GGGAUCUGGAUUUAAUUUGTT against Arf5", "z-score": "inactive: 0.523"}
{"sequence": "GCAUGAAGAGCUAAUGCUATT against Eprs", "z-score": "inactive: -0.364"}
{"sequence": "GGCCCAACACAGAGAUACUTT against Cttnbp2nl", "z-score": "inactive: 1.24"}
{"sequence": "GGACUUUGUUCUGGAAUCGTT against Mterf3", "z-score": "inactive: 0.224"}
{"sequence": "CCUACUUAAGGUCUAGUUUTT against Tafa1", "z-score": "inactive: 0.26"}
{"sequence": "GGACCUGACCUACUCGUGUTT against Rxrb", "z-score": "inactive: -0.216"}
{"sequence": "GGAGAUUUGUUGUUAAGGGTT against Pcdhb2", "z-score": "inactive: -0.826"}
{"sequence": "GGAAAGUGUGGUGACUUCATT against Olfr860", "z-score": "inactive: 1.08"}
{"sequence": "GGUCCUAGGAGACUUUUUGTT against Dnah11", "z-score": "inactive: -0.444"}
{"sequence": "GAAGCAGAUACCAAAACAATT against Kir3dl1", "z-score": "active: -3.02"}
{"sequence": "GGAGUCUACCAUGUGAUCUTT against Tmem134", "z-score": "inactive: 0.583"}
{"sequence": "GGCUUUGAAUUUCUAAGACTT against Olfr125", "z-score": "inactive: -1.96"}
{"sequence": "GCUCUGUUAUAGCCAUGGUTT against Spib", "z-score": "inactive: 0.0925"}
{"sequence": "GGGCAAGUUACAAGAAAUGTT against Mif4gd", "z-score": "inactive: 1.16"}
{"sequence": "CGCGCAAUGCUCCUUUGAGTT against Retnlb", "z-score": "inactive: 0.704"}
{"sequence": "GGAAUACACUCAAUAUUGATT against Nupl1", "z-score": "active: -2.59"}
{"sequence": "GGUCUAAUACUCAAUAGACTT against Tmem200a", "z-score": "inactive: 0.0917"}
{"sequence": "GGAAAGGAAUCCAAAAAUCTT against Lias", "z-score": "inactive: -0.42"}
{"sequence": "GGACCAAGUGGAGAAAGAATT against Nkx6-1", "z-score": "inactive: -0.622"}
{"sequence": "GGUAGCUGUUUAGGACAAUTT against Arl6ip5", "z-score": "active: 3.79"}
{"sequence": "GCAGGAUUAUUUGUCACUUTT against Lims2", "z-score": "inactive: 1.72"}
{"sequence": "GGAAAUCCUCAACUUCAUUTT against Cyp2b13", "z-score": "inactive: -0.296"}
{"sequence": "UCAUCGUACCCAUUCCCAATT against Manbal", "z-score": "inactive: -1.32"}
{"sequence": "GGAAAGGAAAAUCAACUUCTT against Usp14", "z-score": "inactive: 0.0989"}
{"sequence": "GGGAUUUGUUGUCUAAGAUTT against Mapk10", "z-score": "inactive: -0.54"}
{"sequence": "GGCCUAUGGAUUUGACUUCTT against Mrpl28", "z-score": "inactive: 0.131"}
{"sequence": "GGCAAACAUGGAAUACACCTT against Gabrd", "z-score": "inactive: 1.01"}
{"sequence": "GGCCACUCUUCUAGUGCAUTT against Tmem39b", "z-score": "inactive: 1.27"}
{"sequence": "GGUUCUUCAGGACAAUGUGTT against Edem2", "z-score": "inactive: 0.669"}
{"sequence": "GGUCAAUGGAAUGAAAACCTT against Ptprc", "z-score": "inactive: 0.217"}
{"sequence": "GGCACUUUGUUCUAGCAGCTT against Pcdhb21", "z-score": "inactive: 0.959"}
{"sequence": "CCUACUGCAUUAAAAAACUTT against Lactb2", "z-score": "inactive: -1.17"}
{"sequence": "GUUCAAGACGGAGAAGAGGTT against Gpr27", "z-score": "active: 3.03"}
{"sequence": "CCCAGCUAGACAGUCUUUCTT against Il11", "z-score": "active: 2.58"}
{"sequence": "CCGACUAUCUAUCUACUGATT against Agxt2", "z-score": "inactive: 0.0442"}
{"sequence": "GCUUCUUCCUUAGAUGGCATT against Kcnb1", "z-score": "inactive: -1.32"}
{"sequence": "GCAUCUGAAAAUCCUCAACTT against Cxcl12", "z-score": "inactive: -1.21"}
{"sequence": "CCCUCAAAACCUUAAUGGGTT against B3galt1", "z-score": "inactive: -0.223"}
{"sequence": "GGCCCUACAAACUAUUAACTT against Impa2", "z-score": "inactive: 1.24"}
{"sequence": "CGCACUGAAGGGAUGCGAUTT against Dyrk2", "z-score": "inactive: 0.646"}
{"sequence": "GCAGUAUACUUUUGUGAAUTT against Plxna2", "z-score": "inactive: -0.0681"}
{"sequence": "GGCUGUGGAUCUCCUAUCATT against Rnf144b", "z-score": "inactive: -0.881"}
{"sequence": "GGCUAUCUUCAAUAUACUGTT against Lamp3", "z-score": "inactive: 0.471"}
{"sequence": "GGAAGAAUCUGAUUCGUAATT against Snapc5", "z-score": "inactive: -1.28"}
{"sequence": "CGACCCUAAGAAGAAUUUUTT against Nsdhl", "z-score": "inactive: 1.73"}
{"sequence": "GGCUUCAUUCUUGUCCUCCTT against Reg3b", "z-score": "inactive: -0.105"}
{"sequence": "GGAGCAGUGAUGGAGAAUATT against C230012O17Rik", "z-score": "inactive: 0.324"}
{"sequence": "GGGAUCUCCAUACUCUCCUTT against Prima1", "z-score": "inactive: 0.242"}
{"sequence": "GGGUGAUGCCCUUGAAUCUTT against Twf2", "z-score": "active: 2.48"}
{"sequence": "GCCCUUCGCUUAAAGACCATT against Mecr", "z-score": "inactive: 0.148"}
{"sequence": "GGAUCUGACAAGGUACAAGTT against Acsm5", "z-score": "inactive: 0.145"}
{"sequence": "GGAAAAAAAAGGAUUUCUCTT against Pnkp", "z-score": "inactive: 1.21"}
{"sequence": "GGAACUGUGUGUCUUCUCCTT against Kcns3", "z-score": "inactive: -1.78"}
{"sequence": "GGGAAAAGAGCUUGUCCGATT against Phf8-ps", "z-score": "inactive: -0.795"}
{"sequence": "GCUGUAACCAACAUACCUCTT against Inka1", "z-score": "inactive: -0.91"}
{"sequence": "GGAAGAACUGUCAAAGAAATT against Cd3g", "z-score": "inactive: -0.316"}
{"sequence": "GGUGUUCGACGUGACCAAATT against Pgrmc1", "z-score": "inactive: 0.613"}
{"sequence": "GCUGUUUAAUCUGUUAUGCTT against Rps17", "z-score": "inactive: 0.502"}
{"sequence": "GGCAAAGAAAACAUCAGAGTT against Lap3", "z-score": "inactive: 0.296"}
{"sequence": "CCUCUCUAGGCUAUAACUATT against Arhgap23", "z-score": "inactive: 0.521"}
{"sequence": "GGCUUCUUUAUGUUUCCUUTT against Usp48", "z-score": "inactive: -1.46"}
{"sequence": "CCUCAAUUUCGAAGACCCUTT against Asb6", "z-score": "inactive: 1.84"}
{"sequence": "GGCUGAUGUGAUGAUUGUATT against Ndufs7", "z-score": "active: 2.3"}
{"sequence": "GGAGAUCCACCUUUUCAAATT against Fap", "z-score": "inactive: -0.0456"}
{"sequence": "GGCAAAUCCUCAAAGAUGUTT against Abcg5", "z-score": "inactive: -0.434"}
{"sequence": "GGGCAACAGCUUCCAUAAATT against Csrp1", "z-score": "inactive: 1.09"}
{"sequence": "GGAUGUGAUCCUCUGUUGCTT against Pcif1", "z-score": "inactive: -0.843"}
{"sequence": "CCUAUGAGUCUUACGUGAATT against Cyp4x1", "z-score": "inactive: 0.693"}
{"sequence": "GGUUUUUUUUUCCAGUCCATT against Stam2", "z-score": "inactive: -1.05"}
{"sequence": "GACCAUCUCCUUUACGGGCTT against Olfr71", "z-score": "inactive: 0.133"}
{"sequence": "GGCUCUUAACUAUGAAAUATT against Apcs", "z-score": "inactive: -0.476"}
{"sequence": "GGUAAGCAUGGAAAGGCUGTT against Prdm15", "z-score": "inactive: -0.0134"}
{"sequence": "CGACUGUGACAAAAACAUGTT against Ly6m", "z-score": "inactive: 0.401"}
{"sequence": "GGCUCUGUAUCGGAAGGCUTT against Zc3h7a", "z-score": "inactive: 0.817"}
{"sequence": "GGUGUGUAUGGUGCUAGGATT against Olfr1507", "z-score": "active: -2.43"}
{"sequence": "GGCAGCUGAUCAGAAAUCATT against Gabrg3", "z-score": "inactive: -1.13"}
{"sequence": "GCUCUCGAUCAGGAUGUAATT against Vsx1", "z-score": "inactive: 0.153"}
{"sequence": "GCAUACUCACGUCCACUCATT against Gfi1b", "z-score": "inactive: -1.52"}
{"sequence": "GGUAUACUAACUUUUAAGGTT against Fmo1", "z-score": "inactive: -0.228"}
{"sequence": "GGCCAUGAACUGGCAAAGCTT against Erbin", "z-score": "inactive: 0.472"}
{"sequence": "GGAUUUUAAUGGGCUAUGCTT against Zfp114", "z-score": "inactive: 0.805"}
{"sequence": "GGAAAAUGGAAUUUGAAGCTT against Ccnb2", "z-score": "inactive: -0.0768"}
{"sequence": "UCUGUGGACCAGGAUUUGGTT against Pcsk1n", "z-score": "active: -2.8"}
{"sequence": "GGCCCAGUUGUUAAACUCUTT against Pianp", "z-score": "inactive: 0.464"}
{"sequence": "GGAAUAUGUGUGGACUAGATT against Tor3a", "z-score": "inactive: -0.265"}
{"sequence": "GGUCUGGAGACUUUCAGUCTT against Hexa", "z-score": "inactive: 0.521"}
{"sequence": "GGUCAUUGCAUCUGACAAGTT against Pcdha2", "z-score": "inactive: 0.109"}
{"sequence": "CCUUUAGAGGAAUUCACUUTT against Npas2", "z-score": "inactive: -0.576"}
{"sequence": "GGAUGAGAUCAACUUCCUCTT against Krt7", "z-score": "inactive: -0.6"}
{"sequence": "GCUAGGUGUUUGAAGCCUCTT against Mixl1", "z-score": "inactive: -0.834"}
{"sequence": "GGAGAAAUAAGUGCAGGUGTT against Rhox2a", "z-score": "inactive: -0.622"}
{"sequence": "GGAAACUGGUCCCUAUCAATT against Sp2", "z-score": "inactive: -0.27"}
{"sequence": "GGCUCAGACCUGGAUACAUTT against Oas1e", "z-score": "active: -2.31"}
{"sequence": "GCAUCAACAUCCAUCUAUCTT against Kctd8", "z-score": "inactive: 0.713"}
{"sequence": "CCAUGCUCUAUCAAUGUUCTT against Sprr3", "z-score": "inactive: -0.691"}
{"sequence": "CCUCCAUUGAUACUCAAGUTT against Pycr1", "z-score": "inactive: 0.0219"}
{"sequence": "GGGCAAGUACUUCUCUAGCTT against Cdsn", "z-score": "inactive: 0.636"}
{"sequence": "GUUCACACACGAAUUUGACTT against H2-Oa", "z-score": "active: -2.32"}
